A: 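Whole-parasite assay of Trypanosoma brucei over 72 hours; the read-out is not stated. Concentration: 30 µM. The record gives no direction; compounds that gave an IC50 in retests scored well above the rest, so higher reads as stronger inhibition. Values scatter widely below zero; nearly all retest evidence comes from the higher of the two concentrations used. About 64,000 compounds were tested under these conditions; 1.5% (about 940) showed 50% or more at least once.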
B: 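Cell assay of Leishmania donovani living inside macrophages; the read-out is not stated. Concentration: 30 µM. The record gives no direction; compounds that gave an IC50 in retests scored well above the rest, so higher reads as stronger inhibition. Size under these conditions: about 69,000 compounds, about 1,000 of them at 50% or above in at least one test.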

Results are given as percent effect. The controls that fix the scale are not given in the record; negative values are as filed. This is an unselected part of the compounds tested.

* CC(C)N(C)CCNC(=O)N1CCN(Cc2ccon2)CC1 | A: -34.29%; B: 13.48%
* O=C(c1n[nH]cc1Br)N1CCOCC1 | A: -7.815%; B: 3.062%
* COc1cc(F)c(CN2CCN(CC(C)C)C(=O)C2C)cc1OC (stereo not given) | A: -22.47%; B: 3.791%
* CCc1nnc(CN2CCC(C3CCCCCN3C(=O)C3CC3)CC2)o1 (stereo not given) | B: -13.12%
* CNC(=O)CSc1cnn(CC(=O)Nc2cccc(Cl)c2C)c(=O)c1Cl | A: -74.29%; B: 19.9%
* Fc1cccnc1Oc1cc(F)c(CN2CCCC2)c(Cl)c1 | A: -28.33%; B: -13.69%
* CC(=O)c1cccc(OCCCC(=O)N(C)CCC(F)(F)F)c1 | A: -39.96%; B: 12.99%
* [H][C@@]12CN(S(C)(=O)=O)C[C@]1(C(=O)NC)CCC21CCN(C(=O)C(C)C)CC1 | A: -32.48%; B: -14.41%
* Brc1cc2c(cc1CN1CCC(N3CCCCC3)CC1)OCCO2 | A: -8.285%; B: 37.41%
* O=c1[nH]c2c(c(=O)n1C1CCCCC1)CCC2NCCc1ccccc1 (stereo not given) | A: 38.4%; B: 34.63%
* Cc1cc2c(=O)n3c(nc2s1)CCN(C(=O)c1cnn(C)c1C)CC3 | A: 14.76%; B: 17.01%
* COc1ccc(CN(Cc2c[nH]cn2)CC2CCCO2)c(OC)c1.O=C(O)CC(O)(CC(=O)O)C(=O)O (stereo not given) | A: 4.059%; B: 20.29%
* CC(C)(C)C(O)CN1CCN(CC(=O)NC2CCOCC2)CC1 (stereo not given) | A: -12.18%; B: 16.42%
* O=C(Nc1cc(C(F)(F)F)ccc1Cl)c1ccc(N2CCCC2)nn1 | A: -48.49%; B: -5.026%
* CCOc1ncccc1CNC(=O)Nc1ccc(OC)c(OC)c1 | B: 6.079%
* Cc1cnn(CCNCc2cc(-c3ccccc3)no2)c1 | A: -16.49%; B: 9.478%
* Cc1cc(CN(C)C(=O)Nc2cnc3c(c2)c(C)nn3C)no1 | A: 13.81%; B: 29.5%
* Cc1nc(NC(=O)c2c(-n3cnnn3)sc3c2CCCC3)sc1C | A: -8.941%; B: 9.049%
* Cc1ccnc(CC(C)N(C)c2cc(CN)nc(C)n2)c1 (stereo not given) | A: -1.549%; B: 45.18%
* Cn1c(NCC(O)c2ccccc2F)c(C#N)c(=O)n(C)c1=O (stereo not given) | B: 15.89%
* C[C@@H]1CN(Cc2ccc(C(F)(F)F)cc2F)CC[C@]1(C)O | A: -44.04%; B: 3.244%
* CC(=O)N[C@@H]1CN(C(=O)Cc2coc3cc(C)ccc23)C[C@H]1O | A: -3.149%; B: -9.486%
* COc1ccnc(N2CCN(CC(=O)N3CCOCC3)CC2)n1 | A: -3.179%; B: 40.23%
* COc1cccc(CN2CCC3(COCc4cnc(N(C)C)nc43)C2)c1.O=C(O)C(F)(F)F (stereo not given) | A: 7.335%; B: 29.7%
* O=C(O)C(F)(F)F.[H][C@@]12CCN(S(=O)(=O)CC)C[C@]1([H])[C@@H](CN(C)C)OC2 | A: -35.43%; B: 3.474%
* CC(c1nnc(-c2cccs2)o1)N1CCc2cncnc2C1 (stereo not given) | A: -10.95%; B: 9.133%
* COc1ccc(-c2cc(C(=O)NCCCn3ccnc3C)n(C)n2)cc1 | B: 7.375%
* Cc1cc(C(F)(F)F)n2nc(C3CCCN(S(C)(=O)=O)C3)cc2n1 (stereo not given) | A: -7.004%; B: 18.77%
* N#CC(NC(=O)CCCOc1cccnc1)c1ccccc1Cl (stereo not given) | A: -13.7%; B: 17.17%
* Cc1c(CNS(=O)(=O)c2cccc(COC(C)C)c2)cnn1C | A: -2.39%; B: 20.05%
* COC(=O)CCNC(=O)c1c[nH]cc1-c1ccccc1OC | A: 1.231%; B: 5.652%
* COCCOc1cccc(CNCC2CN(C)CCO2)c1 (stereo not given) | A: -7.037%; B: 32.73%
* CC(C)Sc1ccc(N2CCN(Cc3ccccn3)CC2)nn1 | A: -26.93%; B: 3.2%
* CCN(Cc1cccc(-c2ccncc2)c1)S(C)(=O)=O | A: -13.47%; B: -13.32%
* COC(=O)c1sc(C(NC(=O)c2ccccc2)C2CC2)nc1C (stereo not given) | A: -51.68%; B: 33.24%
* CCC1(O)CCCN(c2nc(-c3ccccn3)nc3c2c(C)nn3C)C1 (stereo not given) | A: 51.81%; B: 14.5%
* O=S(=O)(NCc1ccccc1)Nc1cccc(Cn2cncn2)c1 | A: 22.85%; B: -12.45%
* CO[C@H]1CN(S(=O)(=O)c2ccc(F)cc2)C[C@@]12CCCO2 | B: -46.77%
* CCc1nc(CN(C)C(=O)c2cc(CN(CC)CC)c(CC)o2)no1 | A: -41.06%; B: 8.347%

3 of the entries, repeated:

O=C(c1n[nH]cc1Br)N1CCOCC1 gave A: -7.815%; B: 3.062%.
CC(C)(C)C(O)CN1CCN(CC(=O)NC2CCOCC2)CC1 (stereo not given) gave A: -12.18%; B: 16.42%.
Cc1cc2c(=O)n3c(nc2s1)CCN(C(=O)c1cnn(C)c1C)CC3 gave A: 14.76%; B: 17.01%.

Source: ChEMBL document CHEMBL3988442, “University of Dundee, Small-Polar-MMV Screening Library” (2021).